Measured values as given in patent US9120994B2, “Terpene alcohols for use in fragrance compositions and perfumed products” (Givaudan S.A., priority 2011, dated 2015).

Test: Odor description (olfactory evaluation)

| Structure (SMILES) | Odor description |
| --- | --- |
| CC(C)=CC[C@H](C)[C@H]1C[C@]1(C)CO (relative stereo) [Compound Ib, [(1S*,2R*)-1-Methyl-2-[(S*)-5-methylhex-4-en-2-yl]cyclopropyl]methanol] | floral, rosy, geraniol-like |
| CC(C)=CC[C@@H](C)[C@H]1C[C@]1(C)CO (relative stereo) [Compound Ic, [(1S*,2R*)-1-Methyl-2-[(R*)-5-methylhex-4-en-2-yl]cyclopropyl]methanol] | floral, rosy, phenoxanol-like, citrus |
| CC(C)=CCC(C)/C=C(\C)CO (stereo not shown) [Compound Ia, 2,4,7-Trimethylocta-2,6-dien-1-ol] | floral, rose and geranium-like with citrus note |
| CC(C)=CCC(C)C1CC1(C)CO (stereo not shown) [Example 2, [1-Methyl-2(5-methylhex-4-en-2yl)cyclopropyl]methanol] | floral rosy, geranium-like, diffusive |
